Construct, isoform or probe ends are uncertain for at least one entry. For part of these data: The comparison behind a weaker result is the experiment's own reference, which may not be listed here. For part of these data: At least one verdict rests on a figure or table, not on a statement of the authors.
Legend:
[1] = test system: GST-PcVelA1-256 (Penicillium chrysogenum); experiment: EMSA; conditions: EMSA: 3.5-7.0 fmol probe, 2 µl binding buffer (250 mM Tris-HCl pH 8.0, 1 M KCl, 50% glycerol) in 20 µl (about 25 mM Tris, 100 mM KCl, 5% glycerol), 1 µg poly(dI-dC); recombinant protein; protein details: GST; label: 5'-32P
[2] = test system: GST-PcVelA full length (Penicillium chrysogenum); experiment: EMSA; conditions: EMSA: 3.5-7.0 fmol probe, 2 µl binding buffer (250 mM Tris-HCl pH 8.0, 1 M KCl, 50% glycerol) in 20 µl (about 25 mM Tris, 100 mM KCl, 5% glycerol), 1 µg poly(dI-dC); recombinant protein; protein details: GST; label: 5'-32P

Row | Sequence | binding result [1] | binding result [2]
1 | TAGCGTCATTTATTTTTTTCCTTCAGAGTTTTTCCCTCTTCTTCGGAGT (double strand) [PcLlmA_2_m] | binds more weakly | –
2 | TAGCGTCATTTATTTTTTTCTTCCAAGGTTTTTCCCTCTTCTTCGGAGT (double strand) [PcLlmA_2] | binds | binds
3 | TCCGACAGCCTGGTACGGGAAACCTTGGAACCCATTCCAAATCGGTCTG (double strand) [PcLlmA_4] | binds | binds
4 | TCCGACAGCCTGGTACGGGAAACTCTGAAGCCCATTCCAAATCGGTCTG (double strand) [PcLlmA_4_m] | binds more weakly | –

From PMC4999599
